Laboratory results reported in publication PMC7377239, “Cardiovascular Effects of Polychlorinated Biphenyls and Their Major Metabolites” (Environmental Health Perspectives, 2020).
Where a name gives a salt, the structure may show the parent alone.

Test system: iPSC-CMs, iPSC-ECs and HUVECs phenotypes
Experiment: ToxPi 2.0 integration of POD values and physicochemical descriptors
Parameters: species or system human
Details: for ToxPi_Score_Bioactivity: Biological Activity ToxPi, POD values of iPSC-CM, iPSC-EC and HUVEC phenotypes integrated; for ToxPi_Score_ChemBiol: Chemical-Biological Integration ToxPi, in vitro data plus physicochemical descriptors
Description: Phenotypic responses were quantitatively assessed using concentration–response modeling as detailed elsewhere ([Sirenko et al. 2017]). Briefly, phenotypic readouts were normalized to vehicle controls and fit to a four-parameter logistic model in R studio software (version 3.1.1; R Development Core Team). Following EPA guidance on dose–response modeling, a cutoff of one standard deviation across means of vehicle control (i.e., 0.5% vol/vol DMSO in cell culture media) wells was applied to determine the point-of-departure (POD) values ([U.S. EPA 2012]). In the absence of a concentration–response, the highest tested concentration (i.e., 100μM ) was assigned as “no observable adverse effect level.” The concentration–response assessment R script, as well as templates for vehicle and concentration–response data, are available as a supplement to Sirenko et al. ([2017]). The ability of physicochemical properties to predict differences in PODs were evaluated by multiregression and mixed-effects modeling using R.
POD values were then integrated using ToxPi 2.0 ([Marvel et al. 2018]) software. In ToxPi, each slice is representative of cell type– and time-point–specific phenotypes. The area of each slice is proportional to the relative value (e.g., bioactivity or physicochemical descriptor value) of the chemical within the data set. ToxPi scores were used to rank PCBs and their metabolites according to their overall bioactivity and to determine variability in total observable biological responses and chemical characteristics for each major metabolite class and chlorination status (mono-, hexa-chlorinated). Additional visualizations such as dumbbell and principal components analysis plots were generated in R Studio (version 1.1.456; R version 3.5.1; R Development Core Team) using the ggplot2 package.

[1] = iPSC-EC tube formation, 18 hr, scaled from POD
[2] = iPSC-EC, 24 hr, scaled from POD
[3] = HUVECs tube formation, 18 hr, scaled score from POD
[4] = HUVECs, 24 hr, scaled score from POD
[5] = iPSC-EC, 18 h, scaled POD score
[6] = iPSC-EC, 24 h, scaled POD score

## COc1ccc(-c2cccc(Cl)c2)cc1Cl [4-OMe PCB11]
HUVECs, 18 hr, scaled from POD
  huvec.mtl.18hr ToxPi: 0.53
  huvec.tlps.18hr ToxPi: 0.26
  huvec.tta.18hr ToxPi: 0.00
  huvec.ttl.18hr ToxPi: 0.66
HUVECs, 24 hr, scaled from POD
  huvec.cyto.24hr ToxPi: 0.27
  huvec.mito.24hr ToxPi: 0.33
  huvec.mitoint.24hr ToxPi: 0.36
  huvec.nma.24hr ToxPi: 0.35
HUVECs, scaled from POD
  huvec.tc.24hrs ToxPi: 0.27
iPSC-CM
  cm.amp.avg.24hrs ToxPi: 0.15
  cm.amp.avg.90min ToxPi: 0.65
  cm.amp.cv.24hrs ToxPi: 0.06
  cm.amp.cv.90min ToxPi: 0.25
  cm.bpm.24hrs ToxPi: 0.44
  cm.bpm.90min ToxPi: 0.48
  cm.cam.24hrs ToxPi: 0.13
  cm.cam.90min ToxPi: 0.45
  cm.decay.rise.24hrs ToxPi: 0.25
  cm.decay.rise.90min ToxPi: 0.53
  cm.mii.24hrs ToxPi: 0.59
  cm.mii.90min ToxPi: 0.18
  cm.mito.24hrs ToxPi: 0.25
  cm.mito.90min ToxPi: 0.50
  cm.spacing.cv.24hrs ToxPi: 0.18
  cm.spacing.cv.90min ToxPi: 0.14
  cm.tc.24hrs ToxPi: 0.25
  cm.tc.90min ToxPi: 0.51
[1]
  endo.mtl.18hr ToxPi: 0.00
  endo.tlps.18hr ToxPi: 0.20
  endo.tta.18hr ToxPi: 1.00
  endo.ttl.18hr ToxPi: 1.00
[2]
  endo.cyto.24hr ToxPi: 0.00
  endo.mito.24hr ToxPi: 0.00
  endo.mitoint.24hr ToxPi: 0.00
  endo.nma.24hr ToxPi: 0.00
  endo.tc.24hrs ToxPi: 0.00

## COc1cc(Cl)c(-c2cc(Cl)ccc2Cl)cc1Cl [4-OMe PCB52]
90min
  cm.amp.avg.90min ToxPi: 0.72
  cm.amp.cv.90min ToxPi: 0.19
  cm.bpm.90min ToxPi: 0.65
  cm.cam.90min ToxPi: 0.53
  cm.decay.rise.90min ToxPi: 0.55
  cm.mii.90min ToxPi: 0.21
  cm.mito.90min ToxPi: 0.69
  cm.spacing.cv.90min ToxPi: 0.09
  cm.tc.90min ToxPi: 0.46
24hrs
  cm.amp.avg.24hrs ToxPi: 0.00
  cm.amp.cv.24hrs ToxPi: 0.07
  cm.bpm.24hrs ToxPi: 0.21
  cm.cam.24hrs ToxPi: 0.15
  cm.decay.rise.24hrs ToxPi: 0.26
  cm.mii.24hrs ToxPi: 0.76
  cm.mito.24hrs ToxPi: 0.22
  cm.spacing.cv.24hrs ToxPi: 0.25
  cm.tc.24hrs ToxPi: 0.24
[3]
  huvec.mtl.18hr ToxPi: 0.39
  huvec.tlps.18hr ToxPi: 0.37
  huvec.tta.18hr ToxPi: 0.00
  huvec.ttl.18hr ToxPi: 0.00
[4]
  huvec.cyto.24hr ToxPi: 0.50
  huvec.mito.24hr ToxPi: 0.62
  huvec.mitoint.24hr ToxPi: 0.72
  huvec.nma.24hr ToxPi: 0.48
HUVECs, scaled score from POD
  huvec.tc.24hrs ToxPi: 0.50
[5]
  endo.mtl.18hr ToxPi: 0.07
  endo.tlps.18hr ToxPi: 0.09
  endo.tta.18hr ToxPi: 0.06
  endo.ttl.18hr ToxPi: 0.0557
[6]
  endo.cyto.24hr ToxPi: 0.15
  endo.mito.24hr ToxPi: 0.15
  endo.mitoint.24hr ToxPi: 0.00
  endo.nma.24hr ToxPi: 0.10
  endo.tc.24hrs ToxPi: 0.16

## COc1ccc(-c2cccc(Cl)c2)cc1Cl [4-OMe-PCB 11, 4-methoxy-3,3′-dichlorobiphenyl]
  ToxPi_Score_Bioactivity: 0.416
  ToxPi_Score_ChemBiol: 0.4253

## COc1cc(Cl)c(-c2cc(Cl)ccc2Cl)cc1Cl [4-OMe-PCB 52, 4-methoxy-2,2′,5,5′-tetrachlorobiphenyl]
  ToxPi_Score_Bioactivity: 0.3568
  ToxPi_Score_ChemBiol: 0.526

## O=S(=O)(O)Oc1ccc(-c2cccc(Cl)c2)cc1Cl [4-PCB 11 sulfate]
  ToxPi_Score_Bioactivity: 0.2554
  ToxPi_Score_ChemBiol: 0.4098
